PubChem BioAssay AID493014 (National Center for Advancing Translational Sciences (NCATS), 2011)
The list shows a part of the results. Shown are side measurements of this screen, not its main read-out; they come without a call. Most of these compounds were active or inconclusive in the main read-out, so they are no random draw. Words in brackets tell the shape of the fitted curve; partial curves, single points and poor fits give uncertain potencies.

Assay: qHTS Assay to Find Inhibitors of Chronic Active B-Cell Receptor Signaling
Conditions: ABC-DLBCL IkBa-CBG/CBR reporter, luminescence ratio (green luciferase fused to IkBa over red control in TMD8 lymphoma cells), 4 h
Summary of the method: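 TMD8 ABC-DLBCL cells carrying doxycycline-inducible green luciferase fused to IkappaBalpha plus unfused red luciferase were exposed to compounds (up to 46 uM) for 4 hrs at 37C. Activity came from the overlap-corrected green/red luminescence ratio.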

[1] = measured here: CBR red luminescence, cell number
[2] = measured here: IkBa-CBG green luminescence

O=C(Nc1ccc(Br)cc1F)c1cc(S(=O)(=O)NC2CCCCC2)ccc1F
AC50 [1]: 35.5 µM [falling, single point]

CCCn1nc(NC(=O)c2ccncc2)c2cc3ccccc3nc21
AC50 [1]: 7.94 µM [falling, partial curve]

O=C(O)c1ccc2c(c1)C(=O)N([C@@H](C(=O)O)C(c1ccccc1)c1ccccc1)C2=O
AC50 [1]: 0.00461 µM [rising, full curve, poor fit]

O=C(O)c1cc([N+](=O)[O-])c(N2CCCC2)c([N+](=O)[O-])c1
AC50 [1]: 9.2 µM [rising, partial curve, poor fit]

CSCC[C@H](NC(=O)c1ccc(OCC2CCCO2)cc1)c1nc2ccccc2[nH]1 (stereo partly drawn)
AC50 [1]: 7.31 µM [rising, partial curve, poor fit]

Cc1ccc(NC(=O)C(=O)Nc2ccccn2)cc1
AC50 [1]: 0.82 µM [falling, full curve]

Cn1c(CNC(=O)Nc2cccc(Cl)c2)nnc1SCc1ccccc1
AC50 [1]: 1 µM [rising, full curve, poor fit]

O=C(COc1ccccc1)NNC(=O)COc1ccc([N+](=O)[O-])cc1
AC50 [1]: 12.6 µM [rising, partial curve, poor fit]

O=C(Nc1ccc(Cl)cc1)C1(S(=O)(=O)c2ccccc2)CC1
AC50 [1]: 20.6 µM [rising, partial curve, poor fit]

Fc1ccc(-c2nnc(N3CCOCC3)c3ccccc23)cc1F
AC50 [1]: 0.794 µM [rising, full curve, poor fit]

O=C(CN1C(=O)c2cccc3cccc1c23)Nc1ccc(S(=O)(=O)Nc2nccs2)cc1
AC50 [1]: 20.6 µM [rising, single point]

C=CC[C@H](CC(=O)N(CCO)Cc1ccccc1)C(=O)NC[C@@H](OC(=O)[C@@H](CC=C)Cc1ccc(F)cc1)c1ccccc1
AC50 [1]: 8.2 µM [falling, partial curve]

COc1ccc(/C(C)=N/Nc2ccc(C(=O)O)cc2)cc1OC
AC50 [1]: 0.0461 µM [falling, full curve] | AC50 [2]: 18.4 µM [falling, partial curve, poor fit]

CCC1(CC)Cc2ccccc2-c2nc(-c3ccccc3)oc(=O)c21
AC50 [1]: 5.8 µM [falling, full curve]

COc1ccccc1N1Cc2ccccc2C1
AC50 [1]: 35.5 µM [falling, single point]

CC1CN(c2nc(Nc3ccccc3)nc(N)c2[N+](=O)[O-])CC(C)O1 (stereo not drawn)
AC50 [1]: 14.1 µM [falling, partial curve, poor fit]

CCN(CC)CCn1c(NC(=O)c2ccccc2O)nc2ccccc21
AC50 [1]: 35.5 µM [falling, single point]

Nc1ccc(-c2ncc(-c3ccccc3)o2)cc1
AC50 [1]: 0.708 µM [rising, partial curve, poor fit]

NNc1nc2c(F)cc(F)cc2s1
AC50 [1]: 29.1 µM [falling, single point]

Cc1cc(SCc2ccc(Br)cc2)nc(=O)[nH]1
AC50 [1]: 20 µM [rising, single point]

Cc1cc2c(cc1C)NC(c1ccccn1)C1=C(CC(C)(C)CC1=O)N2 (stereo not drawn)
AC50 [1]: 25.9 µM [rising, single point] | AC50 [2]: 0.92 µM [rising, full curve, poor fit]

COc1ccc(-c2cn3cccc(C)c3n2)cc1F
AC50 [1]: 1.58 µM [rising, partial curve, poor fit]

Cc1sc(NC(=O)CN2CCN(c3ccccn3)CC2)c(C#N)c1C
AC50 [1]: 0.13 µM [falling, full curve, poor fit]

COc1cc(CN2CCN(S(=O)(=O)c3ccc(NC(C)=O)cc3)CC2)cc(OC)c1OC
AC50 [1]: 20 µM [rising, partial curve, poor fit]

CCOCCOC(=O)c1ccc(NC(=O)c2cc(OC)c(OC)c(OC)c2Br)cc1
AC50 [1]: 14.6 µM [rising, partial curve]

O=C(Cc1ccc([N+](=O)[O-])cc1)Nc1ccc2c(c1)C(=O)NC2=O
AC50 [1]: 1.12 µM [falling, partial curve]

CC(CCn1cccn1)NC(=O)c1cc(COc2ccc(F)cc2F)on1 (stereo not drawn)
AC50 [1]: 15.8 µM [rising, single point]

Cc1cc2nc(-c3cccnc3SCC(=O)NCc3ccco3)[nH]c2cc1C
AC50 [1]: 7.94 µM [falling, partial curve, poor fit]

O=C(COC(=O)c1ccccc1NC(=O)c1ccco1)Nc1ccc2c(c1)OCO2
AC50 [1]: 5.62 µM [rising, single point]

O=[N+]([O-])c1nn(-c2ccc3c(c2)OCCO3)n(O)c1=Nc1ccccc1
AC50 [1]: 16.4 µM [falling, partial curve]

O=c1cc(-c2ccccc2)cc(-c2ccccc2)n1O
AC50 [1]: 3.66 µM [rising, full curve, poor fit]

CC(=O)c1ccc(OCCn2cnc3ccccc32)cc1
AC50 [1]: 5.8 µM [rising, partial curve, poor fit] | AC50 [2]: 32.6 µM [falling, partial curve, poor fit]

C(=N\Nc1nc2ccccc2s1)/c1cccs1
AC50 [1]: 11.2 µM [falling, single point]

CN1CCN(c2ccc(C(CC(N)=O)NC(=O)Cc3ccc(Br)cc3)cc2[N+](=O)[O-])CC1 (stereo not drawn)
AC50 [1]: 35.5 µM [rising, single point]

COCCCN1CC(=O)N2C(c3ccc(OC)c(OC)c3)c3[nH]c4ccccc4c3C[C@H]2C1=O (stereo partly drawn)
AC50 [1]: 10 µM [rising, partial curve, poor fit]

CC1(C(=O)NCc2ccc(F)cc2)Oc2ccccc2NC1=O (stereo not drawn)
AC50 [1]: 0.631 µM [falling, partial curve, poor fit]

CC1CCCC(NC(=O)C2COc3ccccc3O2)C1C (stereo not drawn)
AC50 [1]: 20.6 µM [rising, partial curve]

COc1ccc([C@@H]2[C@@H]3C(=O)N(C(C)(C)C)C(=O)[C@@H]3[C@]3(C)C(=O)N(c4cccc(Br)c4)C(=O)N23)cc1
AC50 [1]: 22.4 µM [falling, single point]

O=C(CN1CCN(Cc2ccccc2)CC1)Nc1ccc(Cl)cn1
AC50 [1]: 1.16 µM [falling, partial curve, poor fit]

Cn1cnc([N+](=O)[O-])c1Nc1ccc(O)cc1
AC50 [1]: 35.5 µM [falling, single point]

Cc1ccc(C(=O)NCN2CCN(c3ccccc3)CC2)cc1
AC50 [1]: 29.1 µM [rising, single point]

Cc1cc(=O)oc2cc(NC(=O)C3COc4ccccc4O3)ccc12 (stereo not drawn)
AC50 [1]: 23.1 µM [rising, partial curve, poor fit]

CC(=O)c1ccc(N2CCN(c3ncnc4c3c(-c3ccccc3)cn4-c3ccc(Cl)cc3)CC2)cc1
AC50 [1]: 35.5 µM [rising, single point]

O=C(CSc1ccccc1C(=O)O)NC1CCCCCCC1
AC50 [1]: 18.4 µM [rising, partial curve, poor fit]

O=C(NC1CCCCCC1)c1ccco1
AC50 [1]: 11.2 µM [falling, partial curve]

CCOCCn1c(-c2ccccc2)nc2ccccc21
AC50 [1]: 35.5 µM [falling, single point]

COCCNC(=O)c1ccc(C(=O)NCCOC)s1
AC50 [1]: 29.1 µM [rising, single point]

CN(C)c1ccc(/C=C/C(=O)c2c(O)c3ccccc3oc2=O)cc1
AC50 [1]: 35.5 µM [falling, single point]

CCOc1ccc(S(=O)(=O)N2c3ccccc3CC2C)cc1 (stereo not drawn)
AC50 [1]: 11.6 µM [rising, partial curve, poor fit] | AC50 [2]: 14.6 µM [falling, partial curve]

Cc1ccc(-c2nnc(SCC(=O)Nc3ccccc3F)o2)cc1
AC50 [1]: 4.47 µM [falling, partial curve]

CCOC(=O)Cc1csc(NC(=S)NC(=O)CC(C)C)n1
AC50 [1]: 14.6 µM [falling, single point]

Cn1nnnc1Sc1ncnc2scc(-c3ccc(C(F)(F)F)cc3)c12
AC50 [1]: 1.46 µM [falling, full curve] | AC50 [2]: 5.17 µM [rising, partial curve, poor fit]

CCOc1ccc(/C=C(\C#N)C(=O)NCC2CCCO2)cc1OCC (stereo not drawn)
AC50 [1]: 29.1 µM [falling, single point]

CCc1c(C(=O)NC2CCCCC2)[nH]c(C)c1C(C)=O
AC50 [1]: 2.82 µM [rising, partial curve, poor fit]

CCC(C)NC(=O)/C=C/c1cccs1 (stereo not drawn)
AC50 [1]: 29.1 µM [falling, single point]

O=C(O)CCC(=O)Nc1ccccc1C(=O)NCc1ccccc1
AC50 [1]: 29.1 µM [rising, single point]

C=CC[C@H](CC(=O)N(CCO)Cc1ccccc1)C(=O)N[C@H](COC(=O)[C@H](CC=C)CC(=O)OC(C)(C)C)Cc1c[nH]c2ccccc12
AC50 [1]: 23.1 µM [falling, single point]

Cc1ccc(C2C(C#N)=C(N)Oc3n[nH]c(C)c32)cc1 (stereo not drawn)
AC50 [1]: 31.6 µM [falling, single point]

O=C(Nc1cccc2nsnc12)c1ccc(F)cc1
AC50 [1]: 1.46 µM [falling, partial curve, poor fit]

COc1ccccc1-c1cc(C(=O)Nc2c(F)cc(F)cc2Br)no1
AC50 [1]: 10 µM [falling, partial curve, poor fit]

Cc1ccccc1NC(=O)CSC1=NCCN1
AC50 [1]: 29.1 µM [falling, single point]

OCC1CCCCN1CC(O)COC(c1ccc(F)cc1)c1ccc(F)cc1 (stereo not drawn)
AC50 [1]: 17.8 µM [falling, single point]

Brc1ccc(-c2cnnc(N3CCCC3)n2)cc1
AC50 [1]: 7.08 µM [rising, full curve]
